Our source for the z-score values is PubChem BioAssay AID1508600 (Functional Genomics Laboratory (NCATS/FGL), 2020).

Out of some 53,000 sequences screened, about 3,700 (7%) were called active.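 Rule for the calls: active = gene knockdowns whose robust z-score for IL-1 alpha signal is at least 2 or at most -2, so actives lie on both sides; inactive = the rest.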 This is one part of the list.

This experiment in a line: Components of the Cytosolic LPS Sensing Pathway: Gene Identification via Genome-wide siRNA Screen.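 Note: robust z of the log signal after scaling to non-targeting control siRNA wells of the plate.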 Particulars: RAW264.7 macrophages, IL-1a HTRF, actives lie on both sides, screened at 100 nM (by protocol), cells primed 5 h with Pam3CSK4 first. The gist of the method: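 Read-out: IL-1a HTRF on supernatant, divided by plate negative-control median ×100, log-transformed and converted to robust z-score. Cells were RAW264.7 given 100 nM siRNA, Pam3CSK4-primed 5 hours, then LipidA-transfected 24 hour.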
(In TR-FRET formats the signal depends on donor and acceptor labels being close together.)
Turning to GGAUGCAUAUUUUAGAAGATT against Mrtfb, the z-score was inactive: 0.365. In the case of GCAAACGGACACUUGGAAUTT against Hmx1, the z-score is inactive: -0.9.

On to GGAUUUCUCCAUGAUGAGATT against Prss44, for which the z-score is inactive: -1.6. As for GGCUUUACGAGGAAAAAGGTT against Pex1, the z-score is active: 2.09.

Turning to GGUAUAUCUGAGUUUCUACTT against Sgcz, the z-score was inactive: 0.496. With GGUCAGGUGGCUCAAGAAGTT against Plod3 the figure was inactive: 1.34; with GGAUGACUAAAAUGUUAAGTT against Slc20a2, inactive: 0.192; with GGAGAGUUUUCCAGAAUAUTT against Olfr148, inactive: 1.32. Consider CCAUUAAAUGCUGUUGUACTT against Dctn2, for which the z-score was inactive: 0.87. With CGGACAUGACAAAACUAGATT against Eef1b2 the figure was inactive: 0.628. As to GGGCCCAUUUUCAGAAAUGTT against Tagln3, the z-score is inactive: 0.0546.

As to GGAGAGCUAUGUGGUGCUUTT against Wdr4, the z-score is inactive: 0.548. Consider GCUGGCAACGUGCUUAUGATT against Stk10, for which the z-score was inactive: -0.0184. Take GGAACUUUGCUUUGAUGAUTT against Myo9b: the z-score was inactive: 0.179.

Regarding GCUCUCAGCAUCUUCUAUUTT against Tas2r124, the z-score was inactive: -1.01. With GCUAUCGUGAUAAUCUGGATT against Gxylt2 the figure was inactive: -0.113; with CGAUAUCCCAACAGUAAUATT against Nlrp6, inactive: -0.2. With GGAAAAUCUAGAAGACAAUTT against Rwdd1 the figure was inactive: 1.73; with GGGUGUAUGAUCCAGUUAUTT against Olfr913, inactive: 0.965; with GGUCCAUUAUCGAUUUCAUTT against Zfp954, inactive: 0.175.

Take GGAAAUGCCCACUAAAUUUTT against Rpl7l1: the z-score is inactive: 0.456. Consider GGCACAAGAAAUUUGAUGATT against Gpc6, for which the z-score was inactive: -1.91. Turning to GCACAGAGCCUAAUCAUUCTT against Oog2, the z-score was inactive: 0.171. As for CCUCUAGCAUUAGAAACACTT against Pax3, the z-score was inactive: -1.35. The result for CCCAAUUCUUUCAACCCAGTT against Caln1 reads inactive: -0.896; that for GCACGGUAUCUCGAAGUCGTT against Spata18, inactive: -0.785.

As to GGGAUUCAUAAGGAGAAAATT against Tspan7, the z-score was inactive: -0.662.

As for GCCACAAGCAAUAGUCAGATT against Gm867, the z-score was inactive: 0.117.

For GGAUCUCAGUGAAGGAGGUTT against Dlk2, the z-score is inactive: -0.579. Consider GCUACUCUUAUUCUACUUCTT against Slc29a3, for which the z-score was inactive: 0.145. On to GGUUUUUUUUUCGGCUUACTT against Cnga3, for which the z-score is inactive: -0.301. The result for CGCGUAUUUGAGAGAUUCUTT against Ckmt2 reads inactive: -0.282; that for CCGUGAAUUUGGAUGAUGGTT against T2, inactive: -1.98. With GGAAAGCUAAGGCUGUACUTT against Dnal1 the figure was inactive: -0.103. With GCUGUACGUUGUAUGUUGGTT against Ncbp2 the figure was inactive: -0.167; with GGUCGAGUAUGCCUACAGUTT against Mlx, inactive: 0.793; with GCUACCUGUAUUUAUCUCCTT against Adap1, inactive: 0.353. Consider GCCAUCCUUGUGCUAAGAGTT against Ifna4, for which the z-score is inactive: -0.604. With GGACUGAAGAACUUGAAAGTT against Nepn the figure was inactive: 1.24; with “GGACAGUGGAAGGAAUCCATT against 2310033P09Rik”, active: -2.91.

As to GGUAAACAGAGGUUUUAAGTT against Golga3, the z-score is inactive: -0.201. The result for GGGCAAGCAGUUUUUAUGGTT against Mcph1 reads inactive: -1.13; that for CGGACAACAACCUCUGCCATT against Pycrl, inactive: -0.0622; that for GGUGUUGCAUUCAGAUUUUTT against Gimap3, inactive: 1.69.

Take GGCGUAAACAUGGUGUGCATT against Taok3: the z-score was inactive: -0.807. For the sequence GGGUAACCACAGAGAGAAUTT against Slc12a4, the z-score is inactive: -1.38. As to GGGAAUAGAUCUGAACCGUTT against Cpe, the z-score is inactive: -0.0212. The result for GGAACUCACUAACUUCUUGTT against Ccdc116 reads inactive: -1.05; that for GGAAAGCAUGUUGUACUUATT against Ggact, inactive: -0.724; that for GGGUCAAGAAGAAUCUUCUTT against Ppp1r14d, inactive: -1.12. The result for GGAGAUCAACAUCUAUCAGTT against Septin1 reads inactive: 0.0226.

GGACAAAGAUAAUGGAAAATT against Erlec1: the z-score was inactive: 0.353. With GCUGUACUAUCUUUUUCAUTT against Olfr165 the figure was inactive: -0.0549. The result for GGUUGUUAGGAAUCGAUCCTT against Rps26 reads inactive: 0.964. With GCAUUUAUUUGGUGGUGUUTT against Olfr1245 the figure was inactive: 0.104. As to GGAUCUUAUUUCAGAGCCCTT against Trhr2, the z-score is inactive: 0.732. Turning to GGAUACAUCAGUUUGUAGATT against Abhd6, the z-score is inactive: -0.789. Regarding GGUUUACAACCAAAGCUUUTT against Tafa4, the z-score is inactive: 0.961. With GGCCUUCUCCAAGGAGAAGTT against Cavin1 the figure was inactive: -1.16. Take GCAUCCGUUCUCCCUUAUGTT against Mrpl4: the z-score was inactive: 0.461. “GGCUACUCGGCCCUCUGUUTT against 4930404N11Rik”: the z-score is inactive: -1.67. For the sequence GGACCAGCCGAAAAUUACCTT against Cnksr2, the z-score was inactive: 0.746.

As to GGGCAUCAAUUUAAGAAGCTT against Fam13a, the z-score is inactive: 0.0141. GGAUGUGCGUUCUCACAACTT against Suox: the z-score is inactive: -0.649. With GGAUAAAAGCAGAUAUGACTT against Hapln1 the figure was inactive: 0.0378; with GGUAUUUGUUAGGCCACAGTT against Svs4, inactive: 0.108. The result for CCCAGCUGAAGUCUCAAAUTT against Cd209c reads inactive: 1.17. The result for CCCAUUAUUGGCACUACAATT against BB014433 reads inactive: -0.108. With GGAAAUCCGGCUCAUUGAUTT against Aass, the z-score was inactive: -0.0621.

GCCAAAUGACCUUCAGUGUTT against Klk1b24: the z-score was inactive: -0.187. Turning to CACCUCUGGUGAAAGCUAATT against Bola1, the z-score is inactive: 0.308. The result for GGAUCCUGAAACCAUGAGCTT against Lrrc14 reads inactive: 0.482; that for CGGAAGUAAAAAGAACUACTT against Olfr1321, active: 3.01.

On to GCAGCAUUGAUAAAUGGUCTT against Rab3c, for which the z-score is inactive: 0.571. The result for GGCCCAUCACUUACUAAAGTT against Exoc3l reads inactive: 0.224; that for CCUGGACAAGCUAUACCUUTT against Cdc45, inactive: 0.952.

Take GCAGAGGAACAAGGCAUGUTT against Olfr345: the z-score was inactive: -1.42.

With GCCUGUUCUAGUGGUUCUUTT against Krtap4-13, the z-score was inactive: -0.427.

For GGAGACAUGUUCCACAGGCTT against Ngfr, the z-score is inactive: -1.31. The result for GGGCAACACCAUGGAGAUCTT against Crybb1 reads inactive: 1.78; that for GGUAUGAUGAACAGUCCAGTT against Ep300, active: -2.35. With CCUUCUUUAUAGGUAUGACTT against Klhl36 the figure was inactive: 0.91; with CCUAAGCAGCAUUUCAAUATT against Gyg, inactive: 1.02.

GGACGGCCUGUUUGUUAUATT against Olfr1346: the z-score was inactive: 1.21.

With CCUGUGAAUUCAUCGUUCATT against Vps26c, the z-score was active: 2.34. With CCAACAGUACCUCAUUGCUTT against Ciao2a the figure was inactive: -0.834.

CCUUCAGAUUUCAGCUGAATT against Prkcb: the z-score was inactive: 0.366. As to GGCAUGGAUCCUGAAAAACTT against Clec16a, the z-score is inactive: -0.208.

With GGUGGUAUUGUUGGCUUUATT against Olfr1297, the z-score is inactive: 0.293. The result for CGGGAUCCUGUUUCAAGCUTT against Abr reads inactive: 0.19.

In the case of GCAUCCUCAUCAUUCCAAATT against Cd226, the z-score was inactive: 0.579. As to GGUGGCUAUUGUCUUCAAGTT against Ptpa, the z-score is inactive: -0.104. The result for CGAAACCAAUCUAAAGAAGTT against Aco2 reads inactive: 0.184; that for CCUUCGAGACCUGUUGUCUTT against Kif26b, inactive: -1.2; that for GGCUCUGAAUCAGAAGAGUTT against Adamtsl2, inactive: -0.57.

On to GGAAAAAGCACCAUUGUGATT against Gnao1, for which the z-score is inactive: -0.819. The result for GGCUUUAUGCAUCAGUUAATT against Ralgapb reads inactive: -0.986; that for GGAAUGUGUGGGUUUUCCUTT against Tmem14c, inactive: 1.23. With GGAUUUUUGAUGAUGUGUCTT against Arfgap1 the figure was inactive: -0.795; with GGCAGAACCCACUGAGAAATT against Pakap, inactive: -0.349. The result for GGGUAGAAGAAAACGAUUUTT against Atxn7 reads inactive: 0.533. As to CCAAUUGGAAUCCCAUUUUTT against Cd47, the z-score was inactive: -0.273. With GGUGAACAGAUCGCCAUCATT against Ikbkb the figure was inactive: -0.273; with GGUUUUCUAGUUUGAGUUUTT against Atp1b2, inactive: 1.29. With CCGGGUCAAGUUGGUCAACTT against Ascl1 the figure was inactive: 0.407. The result for GGAAAAAGAUGGAAGAAUUTT against Thoc1 reads inactive: -1.1. For GGUAUAUGGCCAUUAUCGATT against Tacr3, the z-score was inactive: -0.614.
